# According to the supplement of paper PMC12823440, “Inhibitors supercharge kinase turnover through native proteolytic circuits” (Nature, 2025):
# Protein sequences, listed by entry. Tags and fused reporters are not part of them. Lines headed by an entry give the natural chain unless they say otherwise; changes in a name come on top.
# UniProt Q13555: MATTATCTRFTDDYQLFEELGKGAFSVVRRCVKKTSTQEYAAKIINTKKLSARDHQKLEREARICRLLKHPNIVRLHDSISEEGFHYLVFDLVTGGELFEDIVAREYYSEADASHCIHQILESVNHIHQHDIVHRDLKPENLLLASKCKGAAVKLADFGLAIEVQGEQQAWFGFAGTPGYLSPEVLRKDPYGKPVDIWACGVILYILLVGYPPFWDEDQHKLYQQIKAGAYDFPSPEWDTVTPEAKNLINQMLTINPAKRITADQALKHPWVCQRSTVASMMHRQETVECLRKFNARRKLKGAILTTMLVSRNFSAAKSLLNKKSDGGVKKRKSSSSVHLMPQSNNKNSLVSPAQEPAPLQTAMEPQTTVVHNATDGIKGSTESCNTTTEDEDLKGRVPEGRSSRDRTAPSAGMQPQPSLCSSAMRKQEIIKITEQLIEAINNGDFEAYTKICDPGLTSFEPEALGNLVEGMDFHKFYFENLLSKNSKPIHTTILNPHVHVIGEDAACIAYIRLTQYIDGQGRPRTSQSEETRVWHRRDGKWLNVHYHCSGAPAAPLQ
# UniProt P07948: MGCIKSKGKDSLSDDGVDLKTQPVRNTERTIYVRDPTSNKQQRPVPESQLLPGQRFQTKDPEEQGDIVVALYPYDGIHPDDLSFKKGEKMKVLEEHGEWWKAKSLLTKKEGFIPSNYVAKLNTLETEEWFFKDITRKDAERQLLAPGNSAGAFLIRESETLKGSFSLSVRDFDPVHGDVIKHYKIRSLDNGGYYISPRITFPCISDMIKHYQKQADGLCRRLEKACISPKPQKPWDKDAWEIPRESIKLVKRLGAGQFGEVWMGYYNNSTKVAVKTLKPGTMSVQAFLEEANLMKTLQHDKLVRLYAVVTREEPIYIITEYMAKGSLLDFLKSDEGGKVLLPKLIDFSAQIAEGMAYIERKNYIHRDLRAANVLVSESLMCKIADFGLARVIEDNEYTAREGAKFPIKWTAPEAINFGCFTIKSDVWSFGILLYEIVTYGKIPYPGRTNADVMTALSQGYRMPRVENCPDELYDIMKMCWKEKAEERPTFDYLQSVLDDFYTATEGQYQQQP
# UniProt Q96GD4, whole entry: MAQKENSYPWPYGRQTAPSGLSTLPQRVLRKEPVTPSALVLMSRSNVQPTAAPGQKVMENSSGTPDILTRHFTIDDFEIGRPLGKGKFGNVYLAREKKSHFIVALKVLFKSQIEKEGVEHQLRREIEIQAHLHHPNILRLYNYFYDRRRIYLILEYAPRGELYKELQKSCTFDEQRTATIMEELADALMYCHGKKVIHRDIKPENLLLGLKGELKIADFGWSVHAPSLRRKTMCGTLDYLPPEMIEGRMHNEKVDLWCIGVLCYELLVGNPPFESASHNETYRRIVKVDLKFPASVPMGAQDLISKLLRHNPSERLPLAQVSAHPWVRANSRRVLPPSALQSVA
# UniProt P21802, whole entry, looked up: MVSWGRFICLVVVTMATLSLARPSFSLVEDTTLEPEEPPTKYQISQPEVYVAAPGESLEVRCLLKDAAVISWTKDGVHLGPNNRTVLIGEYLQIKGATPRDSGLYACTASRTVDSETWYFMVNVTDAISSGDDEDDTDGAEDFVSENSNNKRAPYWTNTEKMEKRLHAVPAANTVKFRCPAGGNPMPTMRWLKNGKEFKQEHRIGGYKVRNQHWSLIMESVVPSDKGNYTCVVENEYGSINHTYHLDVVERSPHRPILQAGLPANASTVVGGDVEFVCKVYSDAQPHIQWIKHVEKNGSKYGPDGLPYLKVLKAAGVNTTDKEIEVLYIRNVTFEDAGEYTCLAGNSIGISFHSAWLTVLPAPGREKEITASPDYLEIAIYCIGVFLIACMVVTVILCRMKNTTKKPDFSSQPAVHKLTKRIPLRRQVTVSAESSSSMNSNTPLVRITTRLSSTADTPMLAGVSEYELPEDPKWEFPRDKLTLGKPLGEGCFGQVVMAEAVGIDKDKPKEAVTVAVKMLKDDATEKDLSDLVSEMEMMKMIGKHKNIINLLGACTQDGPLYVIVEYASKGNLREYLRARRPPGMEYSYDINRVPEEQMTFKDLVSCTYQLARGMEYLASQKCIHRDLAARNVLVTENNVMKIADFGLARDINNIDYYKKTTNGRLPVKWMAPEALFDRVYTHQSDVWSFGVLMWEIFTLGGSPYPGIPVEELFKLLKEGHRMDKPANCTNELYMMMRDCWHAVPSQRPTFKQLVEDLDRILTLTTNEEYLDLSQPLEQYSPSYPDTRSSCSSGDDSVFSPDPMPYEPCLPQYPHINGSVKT
# UniProt O96013: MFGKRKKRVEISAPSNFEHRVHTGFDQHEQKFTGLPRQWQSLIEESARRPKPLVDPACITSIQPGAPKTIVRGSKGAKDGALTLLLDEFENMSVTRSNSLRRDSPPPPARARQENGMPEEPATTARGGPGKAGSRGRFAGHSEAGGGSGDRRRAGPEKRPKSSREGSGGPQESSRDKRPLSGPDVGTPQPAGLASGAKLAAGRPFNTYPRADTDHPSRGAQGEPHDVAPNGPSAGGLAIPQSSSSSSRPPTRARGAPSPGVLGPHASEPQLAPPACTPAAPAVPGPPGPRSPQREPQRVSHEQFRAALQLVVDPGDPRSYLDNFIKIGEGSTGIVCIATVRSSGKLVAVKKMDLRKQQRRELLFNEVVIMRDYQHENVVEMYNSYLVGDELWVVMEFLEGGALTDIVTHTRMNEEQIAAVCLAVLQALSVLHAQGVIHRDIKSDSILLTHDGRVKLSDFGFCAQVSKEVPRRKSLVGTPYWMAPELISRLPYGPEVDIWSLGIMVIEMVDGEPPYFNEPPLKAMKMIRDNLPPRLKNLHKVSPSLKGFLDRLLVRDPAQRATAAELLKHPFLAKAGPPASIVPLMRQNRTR
# UniProt P22607, whole entry, looked up: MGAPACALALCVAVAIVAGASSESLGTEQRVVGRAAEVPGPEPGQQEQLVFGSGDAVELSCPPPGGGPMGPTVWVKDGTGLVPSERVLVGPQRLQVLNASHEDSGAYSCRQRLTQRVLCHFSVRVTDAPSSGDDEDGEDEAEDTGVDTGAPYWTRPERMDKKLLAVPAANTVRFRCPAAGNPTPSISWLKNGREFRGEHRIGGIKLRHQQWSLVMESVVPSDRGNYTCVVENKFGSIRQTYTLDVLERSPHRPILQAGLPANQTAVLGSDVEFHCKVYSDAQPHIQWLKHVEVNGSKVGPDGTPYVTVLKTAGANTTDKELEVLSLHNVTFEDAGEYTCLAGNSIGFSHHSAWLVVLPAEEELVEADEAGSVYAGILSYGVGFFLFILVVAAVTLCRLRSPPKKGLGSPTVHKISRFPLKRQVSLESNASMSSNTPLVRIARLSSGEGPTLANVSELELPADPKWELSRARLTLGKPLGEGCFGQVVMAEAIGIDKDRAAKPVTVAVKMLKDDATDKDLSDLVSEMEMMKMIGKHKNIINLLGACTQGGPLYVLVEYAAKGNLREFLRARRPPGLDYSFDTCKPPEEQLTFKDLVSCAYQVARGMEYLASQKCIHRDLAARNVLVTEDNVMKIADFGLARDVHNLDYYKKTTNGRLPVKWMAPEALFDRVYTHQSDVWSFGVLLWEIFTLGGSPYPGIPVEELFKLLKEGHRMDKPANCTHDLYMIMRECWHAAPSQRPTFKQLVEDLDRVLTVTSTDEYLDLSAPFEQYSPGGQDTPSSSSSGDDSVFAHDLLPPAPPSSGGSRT
# UniProt P53350, whole entry: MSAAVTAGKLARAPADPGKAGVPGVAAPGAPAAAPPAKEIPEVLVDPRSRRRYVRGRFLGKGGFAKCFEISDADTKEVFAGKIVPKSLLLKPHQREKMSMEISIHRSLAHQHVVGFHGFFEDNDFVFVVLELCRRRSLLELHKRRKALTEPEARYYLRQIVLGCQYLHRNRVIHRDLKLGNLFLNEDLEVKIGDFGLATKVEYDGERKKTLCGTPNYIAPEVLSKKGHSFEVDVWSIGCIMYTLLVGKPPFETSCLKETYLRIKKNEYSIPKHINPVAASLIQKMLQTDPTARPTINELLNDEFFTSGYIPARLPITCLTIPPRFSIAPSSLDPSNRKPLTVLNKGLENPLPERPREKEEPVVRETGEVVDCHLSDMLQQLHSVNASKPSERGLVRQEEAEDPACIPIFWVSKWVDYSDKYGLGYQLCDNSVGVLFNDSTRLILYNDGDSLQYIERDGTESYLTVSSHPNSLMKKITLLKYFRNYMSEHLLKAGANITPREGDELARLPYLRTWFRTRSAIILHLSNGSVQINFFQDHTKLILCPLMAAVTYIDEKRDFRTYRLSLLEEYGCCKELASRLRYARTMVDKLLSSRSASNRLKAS
# UniProt P15056, whole entry, looked up: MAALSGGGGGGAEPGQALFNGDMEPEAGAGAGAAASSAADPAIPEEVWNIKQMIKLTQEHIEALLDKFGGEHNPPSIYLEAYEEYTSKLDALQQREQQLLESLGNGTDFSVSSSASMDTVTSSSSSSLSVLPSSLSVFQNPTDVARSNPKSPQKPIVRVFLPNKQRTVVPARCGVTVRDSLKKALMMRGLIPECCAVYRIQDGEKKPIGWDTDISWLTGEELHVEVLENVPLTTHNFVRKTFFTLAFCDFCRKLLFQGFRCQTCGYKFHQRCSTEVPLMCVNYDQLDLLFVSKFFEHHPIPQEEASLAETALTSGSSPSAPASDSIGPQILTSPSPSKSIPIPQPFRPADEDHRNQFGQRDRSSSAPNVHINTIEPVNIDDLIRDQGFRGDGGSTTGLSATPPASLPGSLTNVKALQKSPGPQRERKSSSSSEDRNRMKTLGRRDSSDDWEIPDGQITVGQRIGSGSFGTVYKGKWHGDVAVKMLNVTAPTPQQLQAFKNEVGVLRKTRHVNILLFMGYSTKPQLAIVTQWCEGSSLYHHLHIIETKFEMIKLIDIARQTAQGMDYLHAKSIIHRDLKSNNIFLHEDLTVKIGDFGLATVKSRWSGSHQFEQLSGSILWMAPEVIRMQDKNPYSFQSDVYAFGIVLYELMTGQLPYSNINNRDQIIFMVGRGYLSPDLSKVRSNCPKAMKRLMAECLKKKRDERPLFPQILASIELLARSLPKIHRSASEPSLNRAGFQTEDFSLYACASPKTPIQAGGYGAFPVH
# UniProt P43403: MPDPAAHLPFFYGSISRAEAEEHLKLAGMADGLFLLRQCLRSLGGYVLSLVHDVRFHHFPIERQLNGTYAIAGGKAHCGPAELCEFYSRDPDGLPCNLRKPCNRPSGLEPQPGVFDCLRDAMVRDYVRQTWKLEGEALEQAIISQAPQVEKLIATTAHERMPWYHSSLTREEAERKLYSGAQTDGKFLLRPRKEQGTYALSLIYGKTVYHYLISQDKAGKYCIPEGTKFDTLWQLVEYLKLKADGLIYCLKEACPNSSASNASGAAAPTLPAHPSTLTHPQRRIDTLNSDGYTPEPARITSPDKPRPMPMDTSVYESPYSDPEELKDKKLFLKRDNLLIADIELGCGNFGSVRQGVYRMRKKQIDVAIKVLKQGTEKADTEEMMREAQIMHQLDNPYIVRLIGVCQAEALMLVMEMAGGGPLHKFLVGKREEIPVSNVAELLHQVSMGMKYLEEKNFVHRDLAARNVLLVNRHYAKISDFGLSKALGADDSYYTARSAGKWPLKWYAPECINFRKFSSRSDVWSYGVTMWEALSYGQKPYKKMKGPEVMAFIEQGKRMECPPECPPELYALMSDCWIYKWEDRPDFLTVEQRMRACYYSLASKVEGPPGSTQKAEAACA
# UniProt P31749: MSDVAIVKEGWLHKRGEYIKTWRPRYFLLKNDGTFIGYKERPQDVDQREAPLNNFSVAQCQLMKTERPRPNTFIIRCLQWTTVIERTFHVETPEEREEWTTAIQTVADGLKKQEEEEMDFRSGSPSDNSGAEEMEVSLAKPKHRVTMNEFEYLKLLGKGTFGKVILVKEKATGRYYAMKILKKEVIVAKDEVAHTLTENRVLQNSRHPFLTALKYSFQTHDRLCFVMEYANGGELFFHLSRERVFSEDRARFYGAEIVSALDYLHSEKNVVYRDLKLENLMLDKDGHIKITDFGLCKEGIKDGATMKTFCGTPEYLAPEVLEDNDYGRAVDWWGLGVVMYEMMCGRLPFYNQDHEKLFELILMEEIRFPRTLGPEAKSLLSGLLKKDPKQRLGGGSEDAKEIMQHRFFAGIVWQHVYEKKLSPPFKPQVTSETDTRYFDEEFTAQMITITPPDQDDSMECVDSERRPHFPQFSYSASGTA
# UniProt Q9NYA1, whole entry: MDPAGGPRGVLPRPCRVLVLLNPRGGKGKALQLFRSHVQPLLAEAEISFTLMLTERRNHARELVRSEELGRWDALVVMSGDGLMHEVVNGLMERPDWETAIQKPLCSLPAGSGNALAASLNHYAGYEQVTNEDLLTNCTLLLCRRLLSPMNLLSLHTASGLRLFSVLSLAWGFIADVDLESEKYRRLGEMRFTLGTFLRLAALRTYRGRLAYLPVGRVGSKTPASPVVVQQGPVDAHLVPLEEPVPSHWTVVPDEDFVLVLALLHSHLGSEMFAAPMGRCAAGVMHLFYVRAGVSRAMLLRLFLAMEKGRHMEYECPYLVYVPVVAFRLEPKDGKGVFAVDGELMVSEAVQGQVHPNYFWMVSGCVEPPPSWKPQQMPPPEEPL
# This is one part of the list. The calls rarely recur for the same compound in another form.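 Kinases, fused to nanoluciferase, were expressed in K562 cells; luminescence was measured every 4 h from 2 to 18 h as percent of control (DMSO = 100%, positive control = 0%). A time point is decreased if signal falls significantly (2 sigma). Hits were called by the authors by a rule that is not shown; the count of time points alone does not decide it.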
# Compound: FC(F)(F)c1ccc(CNc2ccc(Cc3c[nH]c4ncc(Cl)cc34)cn2)cn1 [Pexidartinib (hydrochloride)]
# Experiment: number of time points (of 5) at which kinase-Nluc abundance scored as decreased, DMSO-normalised (count); higher = more persistent destabilization
# Conditions: 10 µM; K562; 2-18 h
row,Target,number of time points
1,CAMK2G (UniProt Q13555),0
2,PDPK1 (UniProt O15530),0
3,LYN (UniProt P07948),0
4,EGFR_T790M (UniProt P00533),0
5,LIMK1 (UniProt P53667),0
6,AURKA (UniProt O14965),0
7,HER2 (UniProt P04626),0
8,RET_M918T (clone: RET_mut) (UniProt P07949),0
9,AURKB (UniProt Q96GD4),0
10,SYK (UniProt P43405),0
11,FGFR2 (UniProt P21802),0
12,CAMK2A (UniProt Q9UQM7),0
13,CSF1R (UniProt P07333),0
14,PAK4 (UniProt O96013),0
15,FGFR3 (UniProt P22607),0
16,PLK1 (UniProt P53350),0

row,Target,number of time points
1,SRC (UniProt P12931),0
2,LMTK2 (UniProt Q8IWU2),0
3,LCK (UniProt P06239),0
4,DYRK1B (UniProt Q9Y463),0
5,RAF1_S257L (clone: RAF1_mut) (UniProt P04049),0
6,EGFR_L718V (UniProt P00533),0
7,JAK1 (UniProt P23458),0
8,BRAF_V600E,0
9,LIMK2 (UniProt P53671),0
10,BRAF (UniProt P15056),0
11,ZAP70 (UniProt P43403),0
12,AKT1 (UniProt P31749),0
13,EGFR_L858R (UniProt P00533),0
14,RIPK1 (UniProt Q13546),0
15,CDK10 (UniProt Q15131),0
16,SPHK1 (UniProt Q9NYA1),0

# Compound: FC(F)(F)c1ccc(CNc2ccc(Cc3c[nH]c4ncc(Cl)cc34)cn2)cn1 [Pexidartinib]
# Experiment: as above
# Conditions: 10 µM; K562; 2-18 h
row,Target,number of time points
1,CAMK2G (UniProt Q13555),0
2,PDPK1 (UniProt O15530),0
3,LYN (UniProt P07948),0
4,EGFR_T790M (UniProt P00533),0
5,LIMK1 (UniProt P53667),0
6,AURKA (UniProt O14965),0
7,HER2 (UniProt P04626),0
8,RET_M918T (clone: RET_mut) (UniProt P07949),0
9,AURKB (UniProt Q96GD4),0
10,SYK (UniProt P43405),0
11,FGFR2 (UniProt P21802),0
12,CAMK2A (UniProt Q9UQM7),0
13,CSF1R (UniProt P07333),0
14,PAK4 (UniProt O96013),0
15,FGFR3 (UniProt P22607),0
16,PLK1 (UniProt P53350),0

row,Target,number of time points
1,SRC (UniProt P12931),0
2,LMTK2 (UniProt Q8IWU2),0
3,LCK (UniProt P06239),0
4,DYRK1B (UniProt Q9Y463),0
5,RAF1_S257L (clone: RAF1_mut) (UniProt P04049),0
6,EGFR_L718V (UniProt P00533),0
7,JAK1 (UniProt P23458),0
8,BRAF_V600E,0
9,LIMK2 (UniProt P53671),0
10,BRAF (UniProt P15056),0
11,ZAP70 (UniProt P43403),0
12,AKT1 (UniProt P31749),0
13,EGFR_L858R (UniProt P00533),0
14,RIPK1 (UniProt Q13546),0
15,CDK10 (UniProt Q15131),0
16,SPHK1 (UniProt Q9NYA1),0
